Measured values taken from paper PMC12120744.
These are yes or no findings as the source states them, for the method shown. In cells and extracts the contact can be indirect. Some results given as binding are weak or reduced against the parent protein; the word gives no strength. For some assays here: Tags and fused reporters may be left off the sequences shown.

Amino acid sequences for entries named in this document (tags omitted). Residues count along the entry.
UniProt P01106, residues 16-454: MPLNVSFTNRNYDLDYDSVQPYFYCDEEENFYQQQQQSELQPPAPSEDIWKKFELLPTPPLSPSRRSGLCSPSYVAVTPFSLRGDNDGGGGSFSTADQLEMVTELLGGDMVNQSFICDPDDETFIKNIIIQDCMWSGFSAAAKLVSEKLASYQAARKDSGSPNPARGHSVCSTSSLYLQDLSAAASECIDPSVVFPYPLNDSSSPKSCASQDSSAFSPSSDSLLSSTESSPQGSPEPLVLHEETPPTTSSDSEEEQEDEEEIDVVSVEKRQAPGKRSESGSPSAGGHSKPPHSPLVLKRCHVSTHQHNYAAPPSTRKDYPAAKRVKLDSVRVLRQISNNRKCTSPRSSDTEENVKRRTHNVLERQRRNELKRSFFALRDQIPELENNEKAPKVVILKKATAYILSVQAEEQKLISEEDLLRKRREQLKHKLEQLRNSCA

Tests used:
Flag-RNF112 = target: T1, Flag-RNF112 (UniProt Q9ULX5); assay: co-IP; 293T cells transfected with the respective plasmids for 48 h, MG132 (10 µM) for 8 h; lysis in IP buffer 1 h at 4 °C; anti-Flag or anti-HA antibody overnight at 4 °C, magnetic beads 2 h; Western blot
T1 sequence: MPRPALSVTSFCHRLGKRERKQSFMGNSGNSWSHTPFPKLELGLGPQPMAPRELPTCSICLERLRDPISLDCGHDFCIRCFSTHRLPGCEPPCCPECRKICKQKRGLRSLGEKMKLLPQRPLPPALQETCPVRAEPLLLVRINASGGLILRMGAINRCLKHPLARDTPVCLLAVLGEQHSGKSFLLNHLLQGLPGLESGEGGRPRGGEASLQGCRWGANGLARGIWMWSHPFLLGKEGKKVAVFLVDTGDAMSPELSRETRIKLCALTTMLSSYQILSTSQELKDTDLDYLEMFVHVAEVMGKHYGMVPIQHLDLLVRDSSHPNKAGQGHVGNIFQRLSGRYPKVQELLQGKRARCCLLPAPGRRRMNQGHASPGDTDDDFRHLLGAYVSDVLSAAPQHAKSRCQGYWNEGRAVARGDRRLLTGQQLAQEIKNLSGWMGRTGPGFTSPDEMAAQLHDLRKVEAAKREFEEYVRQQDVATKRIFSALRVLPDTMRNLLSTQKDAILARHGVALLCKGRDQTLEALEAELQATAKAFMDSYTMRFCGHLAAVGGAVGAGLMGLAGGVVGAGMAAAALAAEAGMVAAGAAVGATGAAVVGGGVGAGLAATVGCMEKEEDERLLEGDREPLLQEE

[1] = target: T2, RNF112 (endogenous, 293T cells) (human (endogenous in 293T)) (UniProt Q9ULX5); assay: co-IP; endogenous proteins; IP with RNF112 antibody in 293T cell lysates; Western blot
T2 sequence: T1 sequence

| binding (Flag-RNF112) | binding [1] | Substance |
| --- | --- | --- |
| binds |  | HA-c-Myc (from UniProt P01106-1 1-439) |
|  | binds | c-Myc (endogenous, 293T cells) (from UniProt P01106-1 1-439) |
